No constants are given. Whether binding was seen depends on the method and setting. For some assays here: Binding seen in cells or lysates may run through a third protein. Some results given as binding are weak or reduced against the parent protein; the word gives no strength. Sequences can lack the tags named with a protein.
Tests used:
[1] = biological target: T1, FlhD from E. coli with carboxy-terminal hexa-histidine (E. coli MG1655) (UniProt P0A8S9); assay: pull-down; co-purification of FlhC with FlhD-His6 on a 5 ml His-trap (Ni) column after co-expression in E. coli BL21; Tricine SDS-PAGE, Coomassie staining
T1 sequence: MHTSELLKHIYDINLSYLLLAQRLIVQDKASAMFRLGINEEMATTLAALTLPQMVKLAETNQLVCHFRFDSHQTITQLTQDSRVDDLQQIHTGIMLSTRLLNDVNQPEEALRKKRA

[2] = biological target: T1, FlhD from E. coli with carboxy-terminal hexa-histidine (E. coli MG1655); assay: co-purification on a heparin column; FlhD-His6 and FlhC co-expressed in E. coli BL21, complex recovered on a 5 ml heparin column (used to mimic DNA); Tricine SDS-PAGE, Coomassie staining

B1: FlhC from E. coli (protein, UniProt P0ABY7 1-192)
chain: MSEKSIVQEARDIQLAMELITLGARLQMLESETQLSRGRLIKLYKELRGSPPPKGMLPFSTDWFMTWEQNVHASMFCNAWQFLLKTGLCNGVDAVIKAYRLYLEQCPQAEEGPLLALTRAWTLVRFVESGLLQLSSCNCCGGNFITHAHQPVGSFACSLCQPPSRAVKRRKLSQNPADIIPQLLDEQRVQAV
**Q.** With B1 as the binder, how does the binding [1] read?
**A.** Its binding is “binds”.

**Q.** And the binding [2]?
**A.** The binding was “binds”.
